Measurements as given in the supplement of paper PMC10849652.
This is one part of the list.

By UniProt entry, the sequences of proteins in these tests, tags left out. Where a name states a change or a piece, a line headed by the entry shows the natural chain unless it says otherwise.
UniProt P41252: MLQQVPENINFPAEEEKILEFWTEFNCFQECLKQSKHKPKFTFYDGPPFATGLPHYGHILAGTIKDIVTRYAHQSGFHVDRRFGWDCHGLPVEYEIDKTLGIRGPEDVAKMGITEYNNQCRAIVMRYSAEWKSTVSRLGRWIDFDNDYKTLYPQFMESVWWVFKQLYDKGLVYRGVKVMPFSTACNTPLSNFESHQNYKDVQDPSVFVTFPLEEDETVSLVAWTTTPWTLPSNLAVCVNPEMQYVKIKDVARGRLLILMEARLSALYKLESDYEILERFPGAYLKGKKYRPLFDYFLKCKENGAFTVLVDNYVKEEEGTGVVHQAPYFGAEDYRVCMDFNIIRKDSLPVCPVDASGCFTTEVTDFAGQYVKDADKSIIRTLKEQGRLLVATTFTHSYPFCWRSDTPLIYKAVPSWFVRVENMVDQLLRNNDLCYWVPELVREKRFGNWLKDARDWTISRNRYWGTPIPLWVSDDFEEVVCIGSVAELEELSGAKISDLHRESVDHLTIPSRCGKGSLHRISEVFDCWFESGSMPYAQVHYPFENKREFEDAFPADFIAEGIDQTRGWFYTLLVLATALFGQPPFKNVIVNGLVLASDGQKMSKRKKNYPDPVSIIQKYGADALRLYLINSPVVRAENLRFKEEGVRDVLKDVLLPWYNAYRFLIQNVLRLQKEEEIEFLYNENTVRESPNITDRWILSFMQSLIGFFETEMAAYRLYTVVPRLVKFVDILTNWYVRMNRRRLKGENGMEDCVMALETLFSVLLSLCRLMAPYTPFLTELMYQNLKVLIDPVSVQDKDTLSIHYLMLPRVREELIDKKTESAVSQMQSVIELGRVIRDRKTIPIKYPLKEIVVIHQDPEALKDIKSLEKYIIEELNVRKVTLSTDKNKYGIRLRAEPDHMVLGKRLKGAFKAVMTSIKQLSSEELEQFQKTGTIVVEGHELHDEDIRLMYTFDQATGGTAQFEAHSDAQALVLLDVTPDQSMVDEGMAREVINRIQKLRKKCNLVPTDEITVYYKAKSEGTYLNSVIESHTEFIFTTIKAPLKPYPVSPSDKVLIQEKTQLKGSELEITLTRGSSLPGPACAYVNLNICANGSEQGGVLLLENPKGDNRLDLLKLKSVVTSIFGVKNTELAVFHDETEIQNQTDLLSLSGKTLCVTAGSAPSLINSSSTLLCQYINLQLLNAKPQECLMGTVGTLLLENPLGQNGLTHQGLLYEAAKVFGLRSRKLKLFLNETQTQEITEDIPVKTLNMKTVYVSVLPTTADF
UniProt Q3SXM5: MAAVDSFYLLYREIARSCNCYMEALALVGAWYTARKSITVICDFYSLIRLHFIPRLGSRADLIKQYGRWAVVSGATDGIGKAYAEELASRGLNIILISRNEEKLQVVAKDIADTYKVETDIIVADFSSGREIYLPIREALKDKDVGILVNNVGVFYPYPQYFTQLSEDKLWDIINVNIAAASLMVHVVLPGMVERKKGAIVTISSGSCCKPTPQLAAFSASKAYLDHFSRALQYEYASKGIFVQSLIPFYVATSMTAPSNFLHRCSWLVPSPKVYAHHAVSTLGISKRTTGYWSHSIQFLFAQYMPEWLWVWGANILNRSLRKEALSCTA
UniProt P34931, whole entry, looked up: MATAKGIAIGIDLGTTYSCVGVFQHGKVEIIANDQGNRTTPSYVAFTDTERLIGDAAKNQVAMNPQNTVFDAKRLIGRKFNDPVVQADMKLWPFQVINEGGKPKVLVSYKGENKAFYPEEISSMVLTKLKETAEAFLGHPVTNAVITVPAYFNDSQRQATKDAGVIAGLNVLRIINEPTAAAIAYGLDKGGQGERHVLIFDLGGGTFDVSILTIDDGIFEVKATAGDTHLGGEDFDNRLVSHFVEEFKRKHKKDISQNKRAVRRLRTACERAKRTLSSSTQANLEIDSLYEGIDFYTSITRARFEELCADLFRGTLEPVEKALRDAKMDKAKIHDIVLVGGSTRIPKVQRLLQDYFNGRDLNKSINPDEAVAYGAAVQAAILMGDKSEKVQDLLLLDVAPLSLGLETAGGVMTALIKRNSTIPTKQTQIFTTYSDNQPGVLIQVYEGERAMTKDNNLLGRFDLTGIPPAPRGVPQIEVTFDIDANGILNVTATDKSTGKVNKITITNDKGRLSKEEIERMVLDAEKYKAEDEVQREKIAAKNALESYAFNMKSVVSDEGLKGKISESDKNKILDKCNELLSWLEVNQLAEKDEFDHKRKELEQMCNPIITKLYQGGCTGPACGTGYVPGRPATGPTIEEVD
UniProt Q9BTY7: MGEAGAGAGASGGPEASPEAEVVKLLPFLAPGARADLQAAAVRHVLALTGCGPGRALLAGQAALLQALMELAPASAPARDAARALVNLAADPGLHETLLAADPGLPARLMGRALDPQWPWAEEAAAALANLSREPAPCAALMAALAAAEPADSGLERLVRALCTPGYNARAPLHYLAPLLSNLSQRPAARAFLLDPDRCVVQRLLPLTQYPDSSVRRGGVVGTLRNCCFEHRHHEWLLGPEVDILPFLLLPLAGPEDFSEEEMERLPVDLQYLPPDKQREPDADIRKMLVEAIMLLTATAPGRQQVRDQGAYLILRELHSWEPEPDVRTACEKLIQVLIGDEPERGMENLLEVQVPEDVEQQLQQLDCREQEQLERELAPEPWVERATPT
UniProt Q92506: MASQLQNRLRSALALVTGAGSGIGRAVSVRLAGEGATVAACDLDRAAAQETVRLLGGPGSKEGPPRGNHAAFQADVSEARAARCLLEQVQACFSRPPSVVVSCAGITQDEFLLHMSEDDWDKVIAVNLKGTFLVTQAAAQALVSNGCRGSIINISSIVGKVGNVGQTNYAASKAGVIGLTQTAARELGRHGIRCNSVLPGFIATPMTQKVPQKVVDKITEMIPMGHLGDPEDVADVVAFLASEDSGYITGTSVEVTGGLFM
UniProt P31942: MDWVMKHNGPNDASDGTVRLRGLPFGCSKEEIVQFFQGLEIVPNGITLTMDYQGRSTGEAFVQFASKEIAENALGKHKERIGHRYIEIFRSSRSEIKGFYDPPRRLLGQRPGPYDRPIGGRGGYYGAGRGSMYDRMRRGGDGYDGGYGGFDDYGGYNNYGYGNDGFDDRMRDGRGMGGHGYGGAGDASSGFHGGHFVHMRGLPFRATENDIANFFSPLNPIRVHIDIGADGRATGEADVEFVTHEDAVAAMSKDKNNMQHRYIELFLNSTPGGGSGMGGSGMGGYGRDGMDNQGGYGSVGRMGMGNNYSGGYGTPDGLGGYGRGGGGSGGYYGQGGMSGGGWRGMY
UniProt P04035: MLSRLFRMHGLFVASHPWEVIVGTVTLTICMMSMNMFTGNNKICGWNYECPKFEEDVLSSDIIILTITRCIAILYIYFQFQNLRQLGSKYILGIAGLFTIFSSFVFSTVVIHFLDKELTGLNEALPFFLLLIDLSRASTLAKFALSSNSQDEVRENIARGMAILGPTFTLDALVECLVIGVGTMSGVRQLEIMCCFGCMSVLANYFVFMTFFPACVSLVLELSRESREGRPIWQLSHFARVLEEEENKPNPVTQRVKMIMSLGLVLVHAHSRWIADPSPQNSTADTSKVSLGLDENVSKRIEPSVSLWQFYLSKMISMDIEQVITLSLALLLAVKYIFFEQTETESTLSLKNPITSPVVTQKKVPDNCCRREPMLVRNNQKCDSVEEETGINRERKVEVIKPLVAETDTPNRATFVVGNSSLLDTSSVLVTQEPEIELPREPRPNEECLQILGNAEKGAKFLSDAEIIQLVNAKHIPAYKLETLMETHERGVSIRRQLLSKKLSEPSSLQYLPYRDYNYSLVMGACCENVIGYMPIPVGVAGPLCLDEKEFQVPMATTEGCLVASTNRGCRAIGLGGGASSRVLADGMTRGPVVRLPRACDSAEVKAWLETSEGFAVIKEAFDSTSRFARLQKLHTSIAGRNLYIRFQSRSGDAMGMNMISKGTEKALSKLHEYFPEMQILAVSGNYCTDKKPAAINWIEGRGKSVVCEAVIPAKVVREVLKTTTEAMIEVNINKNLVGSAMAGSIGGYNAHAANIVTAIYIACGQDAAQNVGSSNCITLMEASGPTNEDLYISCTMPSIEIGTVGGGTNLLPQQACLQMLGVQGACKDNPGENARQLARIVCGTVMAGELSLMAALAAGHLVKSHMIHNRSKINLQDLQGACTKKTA
UniProt P34932: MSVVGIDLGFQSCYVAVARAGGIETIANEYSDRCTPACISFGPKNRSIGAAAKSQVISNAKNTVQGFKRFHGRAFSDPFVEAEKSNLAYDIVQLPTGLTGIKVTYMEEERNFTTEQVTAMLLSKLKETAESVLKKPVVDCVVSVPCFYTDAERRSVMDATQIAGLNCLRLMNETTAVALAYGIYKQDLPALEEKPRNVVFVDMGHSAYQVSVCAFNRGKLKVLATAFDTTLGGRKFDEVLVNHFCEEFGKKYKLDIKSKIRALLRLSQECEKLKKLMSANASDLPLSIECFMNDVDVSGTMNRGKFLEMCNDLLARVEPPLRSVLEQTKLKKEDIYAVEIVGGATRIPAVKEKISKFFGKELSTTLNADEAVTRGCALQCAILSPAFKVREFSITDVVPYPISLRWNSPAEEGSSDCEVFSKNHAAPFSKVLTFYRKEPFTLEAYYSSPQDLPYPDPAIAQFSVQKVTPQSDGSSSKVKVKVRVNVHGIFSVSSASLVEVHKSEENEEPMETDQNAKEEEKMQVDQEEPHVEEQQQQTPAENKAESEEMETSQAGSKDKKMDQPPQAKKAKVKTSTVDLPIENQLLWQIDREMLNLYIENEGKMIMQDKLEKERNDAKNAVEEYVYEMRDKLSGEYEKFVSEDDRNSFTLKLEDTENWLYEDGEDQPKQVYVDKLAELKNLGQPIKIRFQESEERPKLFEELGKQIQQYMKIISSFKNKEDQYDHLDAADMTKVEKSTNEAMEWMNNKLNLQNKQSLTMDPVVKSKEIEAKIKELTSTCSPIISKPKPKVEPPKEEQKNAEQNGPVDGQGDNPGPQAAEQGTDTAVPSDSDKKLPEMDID
UniProt O95757: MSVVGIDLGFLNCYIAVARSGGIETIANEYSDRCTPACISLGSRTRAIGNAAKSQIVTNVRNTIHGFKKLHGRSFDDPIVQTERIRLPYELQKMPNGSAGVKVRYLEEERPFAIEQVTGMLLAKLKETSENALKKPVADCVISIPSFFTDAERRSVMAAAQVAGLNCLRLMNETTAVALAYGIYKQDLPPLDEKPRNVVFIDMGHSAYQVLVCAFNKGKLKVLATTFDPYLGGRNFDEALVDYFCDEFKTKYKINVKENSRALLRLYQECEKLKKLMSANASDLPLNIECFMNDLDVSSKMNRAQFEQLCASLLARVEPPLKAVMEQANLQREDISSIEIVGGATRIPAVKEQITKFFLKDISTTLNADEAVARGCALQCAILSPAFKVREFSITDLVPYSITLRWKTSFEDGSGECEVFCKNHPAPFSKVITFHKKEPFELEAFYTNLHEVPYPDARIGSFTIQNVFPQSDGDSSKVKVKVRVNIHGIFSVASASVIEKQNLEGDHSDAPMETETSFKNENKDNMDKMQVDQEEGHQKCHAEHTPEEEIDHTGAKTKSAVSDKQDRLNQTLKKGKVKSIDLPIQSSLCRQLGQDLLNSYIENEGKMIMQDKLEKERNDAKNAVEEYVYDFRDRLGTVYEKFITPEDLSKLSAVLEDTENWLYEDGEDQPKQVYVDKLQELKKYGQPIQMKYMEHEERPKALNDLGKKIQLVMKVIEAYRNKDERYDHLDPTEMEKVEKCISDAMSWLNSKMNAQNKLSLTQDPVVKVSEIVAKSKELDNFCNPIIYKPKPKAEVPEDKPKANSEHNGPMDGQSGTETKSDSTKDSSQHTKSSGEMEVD
UniProt P52272: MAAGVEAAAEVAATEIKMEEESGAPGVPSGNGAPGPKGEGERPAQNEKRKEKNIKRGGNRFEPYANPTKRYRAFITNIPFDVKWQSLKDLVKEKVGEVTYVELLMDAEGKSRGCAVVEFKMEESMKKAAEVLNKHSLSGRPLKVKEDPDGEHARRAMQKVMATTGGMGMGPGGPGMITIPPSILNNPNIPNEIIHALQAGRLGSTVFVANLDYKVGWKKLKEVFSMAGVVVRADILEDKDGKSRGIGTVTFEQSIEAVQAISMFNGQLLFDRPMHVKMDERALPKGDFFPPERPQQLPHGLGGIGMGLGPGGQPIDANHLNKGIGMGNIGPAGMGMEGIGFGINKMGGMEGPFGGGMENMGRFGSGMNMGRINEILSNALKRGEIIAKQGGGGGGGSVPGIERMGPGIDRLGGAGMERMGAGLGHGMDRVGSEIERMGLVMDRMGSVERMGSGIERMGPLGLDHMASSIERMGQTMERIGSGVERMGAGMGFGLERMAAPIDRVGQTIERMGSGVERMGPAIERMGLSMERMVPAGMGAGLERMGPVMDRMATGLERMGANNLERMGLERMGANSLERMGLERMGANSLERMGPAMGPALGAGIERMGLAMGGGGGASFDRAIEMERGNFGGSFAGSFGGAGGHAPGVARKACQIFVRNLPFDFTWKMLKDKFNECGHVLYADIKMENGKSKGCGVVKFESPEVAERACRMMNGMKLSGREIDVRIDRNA

Legend:
Assay in all cases: log2 fold change, soluble protein after heating vs DMSO (PISA); higher = thermal stabilisation; K562 cells, 10 uM, 30 min; active = over 0.2 and 3.5 SD of the protein, either way, in both replicates (recomputed)
[1] = compound: C#Cc1cccc(Nc2ncnc3cc(OCCOC)c(OCCOC)cc23)c1 [erlotinib]
In short: (§1)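 K562 cells at 2×10^6 cells/mL were exposed to 10 μM compound for 30 min, then aliquots were heated for 3 min across 48°C-58°C, pooled, and extracted in PBS containing 0.5% NP-40 at 4°C. The supernatant after 21,000xg for 90 min was taken as soluble protein and measured by TMTpro 16plex LC-MS/MS with channel sums equalised. Thermal stability is reported relative to control samples, with values from duplicates. Fold changes are given on a log2 scale.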

[2] = compound: C/C(=N\NC(=O)C1=CC(=CC=C1)S(=O)(=O)N2CCOCC2)/C3=C(C=CC(=C3)Cl)O
In short: as §1

[3] = compound: C1=CC(=C(C=C1Cl)C2=NC3=NC=CN=C3C(=N2)NC4=CC=NC=C4)F
In short: as §1

[4] = compound: C1=CC(=CC=C1C2=NC3=C(N2)C=C(C=C3)C(=O)N)OC4=CC=C(C=C4)Cl
In short: as §1

[5] = compound: C1=CC2=C(C=CC(=C2)/C=C\3/C(=O)NC(=NCC4=CC=CS4)S3)N=C1
In short: as §1

[6] = compound: C1=CC2=NC=CN=C2C=C1/C=C/3\C(=O)NC(=O)S3
In short: as §1

[7] = compound: C1=CC=C(C=C1)C2=NC(=C(N2)C3=CC=NC=C3)C4=CC(=C(C=C4)Cl)O
In short: as §1

[8] = compound: C1=CC=C2C(=C1)C3=NNC4=CC=CC(=C43)C2=O
In short: as §1

[9] = compound: C1CCN(C1)C(=O)NC2=CC=CC(=C2)NC3=NC=C(C(=N3)NCCC4=CN=CN4)Br
In short: as §1

[10] = compound: C1CN(CCC1(CC2=CC=C(C=C2)Cl)N)C3=NC=NC4=C3C=CN4
In short: as §1

Measured: log2 fold change

HK1 isoform 2 (UniProt P19367)
inactive: [1] 0.014 | [2] -0.004 | [3] 0.032 | [4] -0.005 | [5] 0.012 | [6] 0.017 | [7] -0.027 | [8] -0.016 | [9] 0.003 | [10] 0.03

IARS (UniProt P41252)
inactive: [1] -0.013 | [2] -0.054 | [3] -0.445 | [4] 0 | [5] 0.055 | [6] 0.009 | [7] -0.047 | [8] 0.008 | [9] 0.057 | [10] -0.167

HMBS (UniProt P08397)
inactive: [1] 0 | [2] 0.011 | [3] 0.031 | [4] 0.004 | [5] -0.034 | [6] -0.001 | [7] 0.035 | [8] -0.007 | [9] -0.015 | [10] 0.062

HSDL1 (UniProt Q3SXM5)
inactive: [1] -0.012 | [2] 0.064 | [3] 0.049 | [4] -0.034 | [5] 0.032 | [6] 0.027 | [7] -0.007 | [8] -0.027 | [9] -0.034 | [10] 0.034

HIST2H2BC (UniProt Q6DN03)
inactive: [1] -0.017 | [2] -0.175 | [3] -0.456 | [4] 0.129 | [5] 0.06 | [6] 0.049 | [7] -0.011 | [8] -0.112 | [9] 0.194 | [10] -0.519

HSPA1L (UniProt P34931)
inactive: [1] -0.074 | [2] -0.226 | [3] -0.013 | [4] 0.053 | [5] 0.114 | [6] -0.052 | [7] -0.056 | [8] -0.127 | [9] 0.082 | [10] 0.222

HGH1 (UniProt Q9BTY7)
inactive: [1] -0.058 | [2] -0.075 | [3] -0.191 | [4] 0.146 | [5] 0.001 | [6] 0.093 | [7] -0.02 | [8] 0 | [9] -0.06 | [10] -0.124

HSD17B7 (UniProt P56937)
inactive: [1] -0.018 | [2] 0.123 | [3] 0.078 | [4] -0.02 | [5] 0.076 | [6] 0.014 | [7] 0.088 | [8] 0.001 | [9] -0.035 | [10] 0.019

IBA57 (UniProt Q5T440)
inactive: [1] 0.062 | [2] -0.008 | [3] 0.104 | [4] -0.014 | [5] 0.035 | [6] 0.028 | [7] -0.015 | [8] 0.066 | [9] 0.001 | [10] 0.038

HNRNPK isoform 2 (UniProt P61978)
inactive: [1] 0.042 | [2] 0.019 | [3] -0.003 | [4] 0 | [5] 0.058 | [6] -0.008 | [7] -0.013 | [8] -0.024 | [9] 0.011 | [10] 0.02

HSD17B8 (UniProt Q92506)
inactive: [1] 0 | [2] 0.023 | [3] 0.092 | [4] 0.011 | [5] -0.001 | [6] 0.009 | [7] -0.005 | [8] 0.058 | [9] 0.008 | [10] 0.018

HNRNPH3 (UniProt P31942)
inactive: [1] 0.061 | [2] 0.079 | [3] -0.334 | [4] 0.134 | [5] -0.16 | [6] 0.064 | [7] 0.061 | [8] -0.065 | [9] -0.042 | [10] -0.19

Quoted from the entries so far (2 entries):
HSD17B7 (UniProt P56937)
inactive: [1] -0.018 | [2] 0.123 | [3] 0.078 | [4] -0.02 | [5] 0.076 | [6] 0.014 | [7] 0.088 | [8] 0.001 | [9] -0.035 | [10] 0.019

IBA57 (UniProt Q5T440)
inactive: [1] 0.062 | [2] -0.008 | [3] 0.104 | [4] -0.014 | [5] 0.035 | [6] 0.028 | [7] -0.015 | [8] 0.066 | [9] 0.001 | [10] 0.038

(next part)

HSP90AA4P (UniProt Q58FG1)
inactive: [1] 0.224 | [2] -0.117 | [3] -0.053 | [4] 0.028 | [5] 0.23 | [6] 0.104 | [7] -0.12 | [8] -0.097 | [9] 0.166 | [10] 0.017

HIKESHI (UniProt Q53FT3)
inactive: [1] 0.004 | [2] 0.1 | [3] 0.017 | [4] 0.003 | [5] 0.073 | [6] 0.02 | [7] -0.002 | [8] -0.03 | [9] -0.056 | [10] 0.009

HMMR isoform 3 (UniProt O75330)
inactive: [1] 0.016 | [2] 0.035 | [3] -0.036 | [4] -0.024 | [5] -0.016 | [6] 0.017 | [7] -0.017 | [8] 0.009 | [9] -0.03 | [10] -0.069

HMGCR isoform 3 (UniProt P04035)
inactive: [1] -0.089 | [2] 0.025 | [3] -0.001 | [4] 0.032 | [5] -0.038 | [6] 0.101 | [7] -0.033 | [8] -0.137 | [9] -0.081 | [10] 0

HMCN1 (UniProt Q96RW7)
inactive: [1] -0.336 | [2] 0.074 | [3] 0.225 | [4] 0.152 | [5] 0.177 | [6] 0 | [7] -0.016 | [8] 0 | [9] 0.19 | [10] 0.299

HIP1R (UniProt O75146)
inactive: [1] 0.017 | [2] 0.034 | [3] 0.024 | [4] 0.005 | [5] 0.054 | [6] 0.013 | [7] 0.018 | [8] 0.033 | [9] -0.004 | [10] -0.005

HSPA4 (UniProt P34932)
inactive: [1] -0.048 | [2] 0.03 | [3] 0.091 | [4] 0 | [5] -0.027 | [6] 0.013 | [7] 0.03 | [8] 0.022 | [9] -0.001 | [10] 0.02

HSPA8 (UniProt P11142)
inactive: [1] -0.016 | [2] -0.031 | [3] 0.01 | [4] -0.014 | [5] 0 | [6] 0 | [7] -0.003 | [8] -0.088 | [9] 0.009 | [10] 0.017

HNRNPR isoform 2 (UniProt O43390)
inactive: [1] -0.097 | [2] -0.072 | [3] -0.298 | [4] 0.041 | [5] -0.007 | [6] 0.012 | [7] -0.031 | [8] -0.06 | [9] 0.038 | [10] -0.144

HSPA4L (UniProt O95757)
inactive: [1] -0.035 | [2] 0.031 | [3] 0.049 | [4] -0.023 | [5] -0.02 | [6] 0.036 | [7] 0.007 | [8] 0.028 | [9] -0.004 | [10] 0.011

HSPE1 (UniProt P61604)
inactive: [1] 0.02 | [2] 0.028 | [3] 0.088 | [4] -0.039 | [5] 0.049 | [6] 0.012 | [7] -0.034 | [8] 0 | [9] 0.017 | [10] 0.012

HSPA9 (UniProt P38646)
inactive: [1] -0.007 | [2] 0.003 | [3] 0.054 | [4] -0.032 | [5] -0.024 | [6] 0.005 | [7] -0.035 | [8] 0.023 | [9] 0.028 | [10] 0.036

HTRA2 (UniProt O43464)
inactive: [1] 0.078 | [2] -0.006 | [3] -0.018 | [4] 0 | [5] 0.03 | [6] 0.044 | [7] -0.018 | [8] 0.013 | [9] -0.008 | [10] 0.03

HNRNPM (UniProt P52272)
inactive: [1] 0.042 | [2] -0.044 | [3] -0.287 | [4] 0.113 | [5] 0.007 | [6] 0.107 | [7] -0.028 | [8] 0.037 | [9] 0 | [10] -0.184

HSPA1A (UniProt P0DMV8)
inactive: [1] -0.025 | [2] -0.071 | [3] -0.007 | [4] 0.009 | [5] -0.096 | [6] 0.001 | [7] -0.002 | [8] 0.026 | [9] 0.041 | [10] 0.011

HMGN5 (UniProt P82970)
inactive: [1] -0.038 | [2] 0.055 | [3] 0.048 | [4] -0.005 | [5] -0.039 | [6] 0.066 | [7] 0 | [8] 0.031 | [9] -0.05 | [10] 0.114

HNRNPF (UniProt P52597)
inactive: [1] 0.02 | [2] 0.126 | [3] -0.036 | [4] -0.034 | [5] -0.098 | [6] 0.017 | [7] 0.079 | [8] 0.003 | [9] -0.044 | [10] -0.044
